Results are given in words; binding and its absence hold for the method and conditions named. For part of these data: Binding seen in cells or lysates may run through a third protein. Some results given as binding are weak or reduced against the parent protein; the word gives no strength.

Amino acid sequences for entries named in this document (tags omitted). A change or cut given only in a name is not applied to a line headed by its entry. Residues count along the entry.
UniProt Q9NZQ7: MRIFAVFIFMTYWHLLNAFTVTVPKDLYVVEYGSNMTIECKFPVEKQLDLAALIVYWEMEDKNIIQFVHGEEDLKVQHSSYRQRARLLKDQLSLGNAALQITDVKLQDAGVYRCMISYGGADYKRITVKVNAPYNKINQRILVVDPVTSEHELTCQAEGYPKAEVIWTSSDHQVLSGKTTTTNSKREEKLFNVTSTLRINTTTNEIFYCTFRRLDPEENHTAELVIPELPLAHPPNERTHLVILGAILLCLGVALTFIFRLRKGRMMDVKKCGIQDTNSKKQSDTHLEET
PD-L1, endogenous (human (endogenous in G.C. cells)): residues 19-290 of Q9NZQ7
UniProt Q13263: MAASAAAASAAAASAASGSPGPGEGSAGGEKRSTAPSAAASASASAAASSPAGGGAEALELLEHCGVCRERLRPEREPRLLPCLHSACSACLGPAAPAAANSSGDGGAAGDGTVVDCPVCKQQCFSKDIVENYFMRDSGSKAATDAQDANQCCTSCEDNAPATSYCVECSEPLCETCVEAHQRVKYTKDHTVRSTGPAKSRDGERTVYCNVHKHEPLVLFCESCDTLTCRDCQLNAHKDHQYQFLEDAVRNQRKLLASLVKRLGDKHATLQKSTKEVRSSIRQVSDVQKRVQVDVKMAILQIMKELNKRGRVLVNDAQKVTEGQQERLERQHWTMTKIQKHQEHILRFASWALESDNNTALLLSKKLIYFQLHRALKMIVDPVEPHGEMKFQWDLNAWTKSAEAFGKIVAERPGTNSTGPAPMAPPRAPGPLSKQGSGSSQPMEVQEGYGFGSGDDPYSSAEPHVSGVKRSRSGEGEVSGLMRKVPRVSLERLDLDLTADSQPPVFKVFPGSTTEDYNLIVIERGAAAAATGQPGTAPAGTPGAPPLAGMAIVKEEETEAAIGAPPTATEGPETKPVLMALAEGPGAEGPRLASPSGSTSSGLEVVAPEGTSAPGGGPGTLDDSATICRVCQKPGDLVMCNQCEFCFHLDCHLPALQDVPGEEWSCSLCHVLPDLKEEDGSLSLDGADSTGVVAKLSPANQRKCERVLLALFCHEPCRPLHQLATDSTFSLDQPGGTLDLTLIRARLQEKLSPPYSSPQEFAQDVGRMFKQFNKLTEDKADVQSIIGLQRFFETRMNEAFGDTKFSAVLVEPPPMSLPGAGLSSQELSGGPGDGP

In test [1] the target is PD-L1 full-length, expressed from a construct (UniProt Q9NZQ7). Nature of the test: co-IP; whole G.C. cell lysates in I.P. buffer (NP-40, 50 mM Tris-HCl pH 7.4, 50 mM EDTA, 150 mM NaCl); antibody 2 h at 4 °C, protein A/G agarose beads overnight at 4 °C; five washes; immunoblot; ectopically expressed or endogenous proteins. (In western blotting, separated proteins are transferred to a membrane and probed.)

The target in test [2] is PD-L1, endogenous (human (endogenous in G.C. cells)) (UniProt Q9NZQ7). Described as above.
Test [3] has as its target Myc-PD-L1, produced by in vitro transcription and translation (UniProt Q9NZQ7). As to the kind of experiment: binding of in vitro translated proteins, read by western blot; TRIM28 and Myc-PD-L1 produced with the in vitro transcription and translation system; how the complex was isolated is not told.

As for “TRIM28 full-length, ectopically expressed (from UniProt Q13263 1-835)”, in test [1], the binding result is recorded as “binds”.
For the substance “TRIM28, endogenous (from UniProt Q13263 1-835)”, in test [2], the binding entry is on record as “binds”.
For “TRIM28, produced by in vitro transcription and translation (from UniProt Q13263 1-835)”, in test [3], the binding entry is “binds”.
